# According to the supplement of paper PMC8728848:
# The other results are listed elsewhere or left out.
# B1: AT5G17240(42) (Arabidopsis thaliana), Q6NQJ8 (protein)
# chain: MDLEHQTMETFLRWAAEIGISDSIDSSRFRDSCLGHSLSVSDFPDAGGRGLGAARELKKGELVLKVPRKALMTTESIIAKDLKLSDAVNLHNSLSSTQILSVCLLYEMSKEKKSFWYPYLFHIPRDYDLLATFGNFEKQALQVEDAVWATEKATAKCQSEWKEAGSLMKELELKPKFRSFQAWLWASATISSRTLHVPWDSAGCLCPVGDLFNYDAPGDYSNTPQGPESANNVEEAGLVVETHSERLTDGGFEEDVNAYCLYARRNYQLGEQVLLCYGTYTNLELLEHYGFMLEENSNDKVFIPLETSLFSLASSWPKDSLYIHQDGKLSFALISTLRLWLIPQSQRDKSVMRLVYAGSQISVKNEILVMKWMSEKCGSVLRDLPTSVTEDTVLLHNIDKLQDPELRLEQKETEAFGSEVRAFLDANCLWDVTVLSGKPIEFSRKTSRMLSKWRWSVQWRLSYKRTLADCISYCNEKMNNLLGTQDRLRDL
# Key:
# Assay in all cases: glycan array binding signal (z-score within array); higher = stronger binding
# Settings in all cases: glycan notation: IUPAC condensed, linker removed
# [1] = molecular target: Gal(b1-3)GlcNAc(b1-6)GalNAc
# Method in brief: (§1)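 From the Consortium for Functional Glycomics database, 3228 arrays were curated, keeping only those whose protein sequence was available. Binding is given as a within-array Z-score averaged across arrays sharing a protein sequence and across linkers. Negative Z-scores can be read as non-binding.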
# [2] = molecular target: Gal(b1-3)GlcNAc(b1-6)[Gal(b1-3)]GalNAc
# Method in brief: as §1
# Gal(b1-3)GlcNAc6S = molecular target: Gal(b1-3)GlcNAc6S
# Method in brief: as §1
# [3] = molecular target: Gal(b1-3)[Fuc(a1-4)]GlcNAc
# Method in brief: as §1
# [4] = molecular target: Gal(b1-3)[Fuc(a1-4)]GlcNAc(b1-2)Man
# Method in brief: as §1
# [5] = molecular target: Gal(b1-3)[Fuc(a1-4)]GlcNAc(b1-2)Man(a1-3)[Gal(b1-3)[Fuc(a1-4)]GlcNAc(b1-2)Man(a1-6)]Man(b1-4)GlcNAc(b1-4)[Fuc(a1-6)]GlcNAc
# Method in brief: as §1
# [6] = molecular target: Gal(b1-3)[Fuc(a1-4)]GlcNAc(b1-3)Gal(b1-3)[Fuc(a1-4)]GlcNAc
# Method in brief: as §1
# [7] = molecular target: Gal(b1-3)[Fuc(a1-4)]GlcNAc(b1-3)Gal(b1-4)[Fuc(a1-3)]GlcNAc
# Method in brief: as §1
# [8] = molecular target: Gal(b1-3)[Fuc(a1-4)]GlcNAc(b1-6)GalNAc
# Method in brief: as §1
# [9] = molecular target: Gal(b1-3)[GlcNAc(b1-6)]GalNAc
# Method in brief: as §1
# [10] = molecular target: Gal(b1-3)[Neu5Ac(a2-6)]GalNAc
# Method in brief: as §1
# [11] = molecular target: Gal(b1-3)[Neu5Ac(a2-6)]GlcNAc(b1-4)Gal(b1-4)Glc
# Method in brief: as §1
# [12] = molecular target: Gal(b1-3)[Neu5Ac(b2-6)]GalNAc
# Method in brief: as §1
# Gal(b1-4)Gal = molecular target: Gal(b1-4)Gal
# Method in brief: as §1
# [13] = molecular target: Gal(b1-4)GalNAc(a1-3)[Fuc(a1-2)]Gal(b1-4)GlcNAc
# Method in brief: as §1
# [14] = molecular target: Gal(b1-4)GalNAc(b1-3)[Fuc(a1-2)]Gal(b1-4)GlcNAc
# Method in brief: as §1
# Gal(b1-4)Glc = molecular target: Gal(b1-4)Glc
# Method in brief: as §1
# Gal(b1-4)Glc6S = molecular target: Gal(b1-4)Glc6S
# Method in brief: as §1
# Gal(b1-4)GlcNAc = molecular target: Gal(b1-4)GlcNAc
# Method in brief: as §1
# [15] = molecular target: Gal(b1-4)GlcNAc(a1-6)Gal(b1-4)GlcNAc
# Method in brief: as §1
# Gal(b1-4)GlcNAc(b1-2)Man = molecular target: Gal(b1-4)GlcNAc(b1-2)Man
# Method in brief: as §1
# [16] = molecular target: Gal(b1-4)GlcNAc(b1-2)Man(a1-3)Man(b1-4)GlcNAc(b1-4)GlcNAc
# Method in brief: as §1
# [17] = molecular target: Gal(b1-4)GlcNAc(b1-2)Man(a1-3)[Gal(b1-4)GlcNAc(b1-2)Man(a1-6)]Man(b1-4)GlcNAc(b1-4)GlcNAc
# Method in brief: as §1
# [18] = molecular target: Gal(b1-4)GlcNAc(b1-2)Man(a1-3)[Gal(b1-4)GlcNAc(b1-2)Man(a1-6)]Man(b1-4)GlcNAc(b1-4)[Fuc(a1-6)]GlcNAc
# Method in brief: as §1
# [19] = molecular target: Gal(b1-4)GlcNAc(b1-2)Man(a1-3)[Gal(b1-4)GlcNAc(b1-2)Man(a1-6)][Gal(b1-4)GlcNAc(b1-4)]Man(b1-4)GlcNAc(b1-4)[Fuc(a1-6)]GlcNAc
# Method in brief: as §1
# [20] = molecular target: Gal(b1-4)GlcNAc(b1-2)Man(a1-3)[Gal(b1-4)GlcNAc(b1-2)Man(a1-6)][GlcNAc(b1-4)]Man(b1-4)GlcNAc(b1-4)[Fuc(a1-6)]GlcNAc
# Method in brief: as §1
# [21] = molecular target: Gal(b1-4)GlcNAc(b1-2)Man(a1-3)[GlcNAc(b1-2)Man(a1-6)]Man(b1-4)GlcNAc(b1-4)GlcNAc
# Method in brief: as §1
# [22] = molecular target: Gal(b1-4)GlcNAc(b1-2)Man(a1-3)[GlcNAc(b1-4)][Gal(b1-4)GlcNAc(b1-2)Man(a1-6)]Man(b1-4)GlcNAc(b1-4)GlcNAc
# Method in brief: as §1
# [23] = molecular target: Gal(b1-4)GlcNAc(b1-2)Man(a1-3)[Man(a1-6)]Man(b1-4)GlcNAc(b1-4)GlcNAc
# Method in brief: as §1
# [24] = molecular target: Gal(b1-4)GlcNAc(b1-2)Man(a1-6)Man(b1-4)GlcNAc(b1-4)GlcNAc
# Method in brief: as §1
# [25] = molecular target: Gal(b1-4)GlcNAc(b1-2)Man(a1-6)[GlcNAc(b1-2)Man(a1-3)]Man(b1-4)GlcNAc(b1-4)GlcNAc
# Method in brief: as §1
# [26] = molecular target: Gal(b1-4)GlcNAc(b1-2)Man(a1-6)[Man(a1-3)]Man(b1-4)GlcNAc(b1-4)GlcNAc
# Method in brief: as §1
# [27] = molecular target: Gal(b1-4)GlcNAc(b1-2)[Gal(b1-4)GlcNAc(b1-4)]Man(a1-3)[Gal(b1-4)GlcNAc(b1-2)Man(a1-6)]Man(b1-4)GlcNAc(b1-4)GlcNAc
# Method in brief: as §1
# [28] = molecular target: Gal(b1-4)GlcNAc(b1-2)[Gal(b1-4)GlcNAc(b1-4)]Man(a1-3)[Gal(b1-4)GlcNAc(b1-2)[Gal(b1-4)GlcNAc(b1-6)]Man(a1-6)]Man(b1-4)GlcNAc(b1-4)GlcNAc
# Method in brief: as §1
# [29] = molecular target: Gal(b1-4)GlcNAc(b1-2)[Gal(b1-4)GlcNAc(b1-4)]Man(a1-3)[GlcNAc(b1-4)][Gal(b1-4)GlcNAc(b1-2)Man(a1-6)]Man(b1-4)GlcNAc(b1-4)GlcNAc
# Method in brief: as §1
# [30] = molecular target: Gal(b1-4)GlcNAc(b1-2)[Gal(b1-4)GlcNAc(b1-4)]Man(a1-3)[GlcNAc(b1-4)][Gal(b1-4)GlcNAc(b1-2)[Gal(b1-4)GlcNAc(b1-6)]Man(a1-6)]Man(b1-4)GlcNAc(b1-4)GlcNAc
# Method in brief: as §1
# [31] = molecular target: Gal(b1-4)GlcNAc(b1-2)[Gal(b1-4)GlcNAc(b1-6)]Man(a1-6)[Gal(b1-4)GlcNAc(b1-2)Man(a1-3)]Man(b1-4)GlcNAc(b1-4)GlcNAc
# Method in brief: as §1
binder,measurement,setting,value
B1,glycan array binding signal (z-score),[1],-0.32
same,glycan array binding signal (z-score),[2],-0.285
same,glycan array binding signal (z-score),Gal(b1-3)GlcNAc6S,-0.452
same,glycan array binding signal (z-score),[3],-0.089
same,glycan array binding signal (z-score),[4],-0.204
same,glycan array binding signal (z-score),[5],-0.162
same,glycan array binding signal (z-score),[6],-0.017
same,glycan array binding signal (z-score),[7],-0.637
same,glycan array binding signal (z-score),[8],0.528
same,glycan array binding signal (z-score),[9],1.03
same,glycan array binding signal (z-score),[10],0.367
same,glycan array binding signal (z-score),[11],-0.759
same,glycan array binding signal (z-score),[12],-0.689
same,glycan array binding signal (z-score),Gal(b1-4)Gal,0.335
same,glycan array binding signal (z-score),[13],-0.444
same,glycan array binding signal (z-score),[14],-0.445
same,glycan array binding signal (z-score),Gal(b1-4)Glc,-0.241
same,glycan array binding signal (z-score),Gal(b1-4)Glc6S,1.09
same,glycan array binding signal (z-score),Gal(b1-4)GlcNAc,-0.35
same,glycan array binding signal (z-score),[15],-0.045
same,glycan array binding signal (z-score),Gal(b1-4)GlcNAc(b1-2)Man,-0.207
same,glycan array binding signal (z-score),[16],0.285
same,glycan array binding signal (z-score),[17],-0.712
same,glycan array binding signal (z-score),[18],-0.445
same,glycan array binding signal (z-score),[19],-0.712
same,glycan array binding signal (z-score),[20],0.054
same,glycan array binding signal (z-score),[21],-0.019
same,glycan array binding signal (z-score),[22],-0.185
same,glycan array binding signal (z-score),[23],-0.444
same,glycan array binding signal (z-score),[24],-0.645
same,glycan array binding signal (z-score),[25],-0.264
same,glycan array binding signal (z-score),[26],-0.242
same,glycan array binding signal (z-score),[27],0.702
same,glycan array binding signal (z-score),[28],-0.661
same,glycan array binding signal (z-score),[29],-0.557
same,glycan array binding signal (z-score),[30],-0.651
same,glycan array binding signal (z-score),[31],-0.462

# Reprinted at random: two records from the list, in no set order.
binder,measurement,setting,value
B1,glycan array binding signal (z-score),[10],0.367
same,glycan array binding signal (z-score),[4],-0.204
